# Assay results: the supplement of paper PMC8728848
# The other results are listed elsewhere or left out.
# Tests used:
# Experiment in all cases: glycan array binding signal (z-score within array); higher = stronger binding
# Details in all cases: glycan notation: IUPAC condensed, linker removed
# [1] = biological target: Fuc(a1-2)Gal(b1-4)GlcNAc(b1-3)Gal(b1-4)GlcNAc(b1-2)Man(a1-3)[Fuc(a1-2)Gal(b1-4)GlcNAc(b1-3)Gal(b1-4)GlcNAc(b1-2)Man(a1-6)]Man(b1-4)GlcNAc(b1-4)GlcNAc
# How it was run: (§1)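 The Consortium for Functional Glycomics database supplied 3228 glycan arrays, of which those lacking an available protein sequence were dropped. The binding signal, a within-array Z-score, was averaged across arrays of the same protein sequence and across linkers. Negative scores can be read as non-binding.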
# [2] = biological target: Fuc(a1-2)Gal(b1-4)GlcNAc(b1-3)Gal(b1-4)GlcNAc(b1-3)Gal(b1-4)GlcNAc
# How it was run: as §1
# [3] = biological target: Fuc(a1-2)Gal(b1-4)GlcNAc(b1-3)GalNAc
# How it was run: as §1
# [4] = biological target: Fuc(a1-2)Gal(b1-4)GlcNAc(b1-3)[Fuc(a1-2)Gal(b1-4)GlcNAc(b1-6)]GalNAc
# How it was run: as §1
# [5] = biological target: Fuc(a1-2)Gal(b1-4)GlcNAc(b1-3)[Fuc(a1-3)[Gal(b1-4)]GlcNAc(b1-6)]Gal(b1-4)Glc
# How it was run: as §1
# [6] = biological target: Fuc(a1-2)Gal(b1-4)GlcNAc(b1-6)GalNAc
# How it was run: as §1
# [7] = biological target: Fuc(a1-2)Gal(b1-4)GlcNAc6S
# How it was run: as §1
# [8] = biological target: Fuc(a1-2)Gal(b1-4)[Fuc(a1-3)]GlcNAc
# How it was run: as §1
# [9] = biological target: Fuc(a1-2)Gal(b1-4)[Fuc(a1-3)]GlcNAc(b1-2)Man(a1-3)[Fuc(a1-2)Gal(b1-4)[Fuc(a1-3)]GlcNAc(b1-2)Man(a1-6)]Man(b1-4)GlcNAc(b1-4)[Fuc(a1-6)]GlcNAc
# How it was run: as §1
# [10] = biological target: Fuc(a1-2)Gal(b1-4)[Fuc(a1-3)]GlcNAc(b1-2)[Fuc(a1-2)Gal(b1-4)[Fuc(a1-3)]GlcNAc(b1-4)]Man(a1-3)[Fuc(a1-2)Gal(b1-4)[Fuc(a1-3)]GlcNAc(b1-2)Man(a1-6)]Man(b1-4)GlcNAc(b1-4)GlcNAc
# How it was run: as §1
# [11] = biological target: Fuc(a1-2)Gal(b1-4)[Fuc(a1-3)]GlcNAc(b1-3)Gal(b1-4)[Fuc(a1-3)]GlcNAc
# How it was run: as §1
# [12] = biological target: Fuc(a1-2)Gal(b1-4)[Fuc(a1-3)]GlcNAc(b1-3)Gal(b1-4)[Fuc(a1-3)]GlcNAc(b1-3)Gal(b1-4)[Fuc(a1-3)]GlcNAc
# How it was run: as §1
# [13] = biological target: Fuc(a1-2)Gal(b1-4)[Fuc(a1-3)]GlcNAc(b1-3)GalNAc
# How it was run: as §1
# [14] = biological target: Fuc(a1-2)Gal(b1-4)[Fuc(a1-3)]GlcNAc(b1-3)[Neu5Ac(a2-6)Gal(b1-4)GlcNAc(b1-6)]Gal(b1-4)Glc
# How it was run: as §1
# [15] = biological target: Fuc(a1-2)Gal3S(b1-4)GlcNAc
# How it was run: as §1
# [16] = biological target: Fuc(a1-2)Gal6S(b1-3)GlcNAc
# How it was run: as §1
# [17] = biological target: Fuc(a1-2)Gal6S(b1-3)GlcNAc6S
# How it was run: as §1
# Fuc(a1-2)Gal6S(b1-4)Glc = biological target: Fuc(a1-2)Gal6S(b1-4)Glc
# How it was run: as §1
# [18] = biological target: Fuc(a1-2)Gal6S(b1-4)Glc6S
# How it was run: as §1
# Fuc(a1-2)[Gal(a1-3)]Gal = biological target: Fuc(a1-2)[Gal(a1-3)]Gal
# How it was run: as §1
# [19] = biological target: Fuc(a1-2)[Gal(a1-3)]Gal(b1-3)GalNAc
# How it was run: as §1
# [20] = biological target: Fuc(a1-2)[Gal(a1-3)]Gal(b1-3)GalNAc(b1-3)Gal(a1-4)Gal(b1-4)Glc
# How it was run: as §1
# [21] = biological target: Fuc(a1-2)[Gal(a1-3)]Gal(b1-3)GlcNAc
# How it was run: as §1
# [22] = biological target: Fuc(a1-2)[Gal(a1-3)]Gal(b1-3)GlcNAc(b1-2)Man(a1-3)[Fuc(a1-2)[Gal(a1-3)]Gal(b1-3)GlcNAc(b1-2)Man(a1-6)]Man(b1-4)GlcNAc(b1-4)GlcNAc
# How it was run: as §1
# [23] = biological target: Fuc(a1-2)[Gal(a1-3)]Gal(b1-3)GlcNAc(b1-2)Man(a1-3)[Fuc(a1-2)[Gal(a1-3)]Gal(b1-3)GlcNAc(b1-2)Man(a1-6)]Man(b1-4)GlcNAc(b1-4)[Fuc(a1-6)]GlcNAc
# How it was run: as §1
# [24] = biological target: Fuc(a1-2)[Gal(a1-3)]Gal(b1-3)GlcNAc(b1-3)GalNAc
# How it was run: as §1
# [25] = biological target: Fuc(a1-2)[Gal(a1-3)]Gal(b1-3)GlcNAc(b1-6)GalNAc
# How it was run: as §1
# [26] = biological target: Fuc(a1-2)[Gal(a1-3)]Gal(b1-4)Glc
# How it was run: as §1
# [27] = biological target: Fuc(a1-2)[Gal(a1-3)]Gal(b1-4)GlcNAc
# How it was run: as §1
# [28] = biological target: Fuc(a1-2)[Gal(a1-3)]Gal(b1-4)GlcNAc(b1-2)Man
# How it was run: as §1
binder,measurement,setting,value
"Ovorubin (Pomacea canaliculata), J7I2T6 (protein) MFVATSLLLAIATLVVRASPHNYLIMDIEPPKSVSERDILNLLSPLQVKHSFRVTGSTRLLIVIRLDAQSYEKLDEITVPGKVEVIPAVNMADTMERCGVSWPRVELTDDNVTLFESESTLTDVTKEQLKAMLIGYGEHMSGLLQAHRFEYYQAAGATPHRHFVFVNSVPDEIEVFGREGVDIWGGPGEFVVKPQYVTRI",glycan array binding signal (z-score),[1],0.865
same,glycan array binding signal (z-score),[2],-0.028
same,glycan array binding signal (z-score),[3],-0.197
same,glycan array binding signal (z-score),[4],0.194
same,glycan array binding signal (z-score),[5],-0.468
same,glycan array binding signal (z-score),[6],0.848
same,glycan array binding signal (z-score),[7],0.049
same,glycan array binding signal (z-score),[8],-0.814
same,glycan array binding signal (z-score),[9],0.428
same,glycan array binding signal (z-score),[10],0.485
same,glycan array binding signal (z-score),[11],-0.813
same,glycan array binding signal (z-score),[12],1.19
same,glycan array binding signal (z-score),[13],0.701
same,glycan array binding signal (z-score),[14],-0.213
same,glycan array binding signal (z-score),[15],-0.963
same,glycan array binding signal (z-score),[16],0.343
same,glycan array binding signal (z-score),[17],0.265
same,glycan array binding signal (z-score),Fuc(a1-2)Gal6S(b1-4)Glc,-0.235
same,glycan array binding signal (z-score),[18],0.236
same,glycan array binding signal (z-score),Fuc(a1-2)[Gal(a1-3)]Gal,-0.016
same,glycan array binding signal (z-score),[19],-0.033
same,glycan array binding signal (z-score),[20],-0.178
same,glycan array binding signal (z-score),[21],-0.405
same,glycan array binding signal (z-score),[22],-0.045
same,glycan array binding signal (z-score),[23],-0.182
same,glycan array binding signal (z-score),[24],0.287
same,glycan array binding signal (z-score),[25],0.121
same,glycan array binding signal (z-score),[26],0.11
same,glycan array binding signal (z-score),[27],-0.498
same,glycan array binding signal (z-score),[28],0.602

# Exported with tabs: part of the list above.
binder	measurement	setting	value
Ovorubin (Pomacea canaliculata), J7I2T6 (protein) MFVATSLLLAIATLVVRASPHNYLIMDIEPPKSVSERDILNLLSPLQVKHSFRVTGSTRLLIVIRLDAQSYEKLDEITVPGKVEVIPAVNMADTMERCGVSWPRVELTDDNVTLFESESTLTDVTKEQLKAMLIGYGEHMSGLLQAHRFEYYQAAGATPHRHFVFVNSVPDEIEVFGREGVDIWGGPGEFVVKPQYVTRI	glycan array binding signal (z-score)	[15]	-0.963
same	glycan array binding signal (z-score)	[16]	0.343
